Data taken from PMC9075623.
No constants are given. Whether binding was seen depends on the method and setting. In cells and extracts the contact can be indirect. These calls come from enrichment with a bait or labelling near it, and not all partners need be listed. No binding means not detected with the bait. Tags and fused reporters may be left off the sequences shown.

Target: V5-tagged full-length human TSPO^A147T (A147T polymorphism variant) (human)
Assay: affinity purification with mass spectrometry; V5 antibody IP of mitochondria-enriched fractions of U87MG cells transfected with V5-tagged TSPO^WT or TSPO^A147T (controls: IgG, non-transfected cells); protein G magnetic beads, washes in 50mM HEPES pH 7.5, 140mM NaCl, 0.2% NP40; in-solution trypsin digest, LC-MS/MS, Mascot and Scaffold; 3 biological replicates

B1: MGST1 (protein, UniProt P10620 1-155)
chain: MVDLTQVMDDEVFMAFASYATIILSKMMLMSTATAFYRLTRKVFANPEDCVAFGKGENAKKYLRTDDRVERVRRAHLNDLENIIPFLGIGLLYSLSGPDPSTAILHFRLFVGARIYHTIAYLTPLPQPNRALSFFVGYGVTLSMAYRLLKSKLYL
  binding: binds

B2: SCAMP3 (protein, UniProt O14828 1-347)
chain: MAQSRDGGNPFAEPSELDNPFQDPAVIQHRPSRQYATLDVYNPFETREPPPAYEPPAPAPLPPPSAPSLQPSRKLSPTEPKNYGSYSTQASAAAATAELLKKQEELNRKAEELDRRERELQHAALGGTATRQNNWPPLPSFCPVQPCFFQDISMEIPQEFQKTVSTMYYLWMCSTLALLLNFLACLASFCVETNNGAGFGLSILWVLLFTPCSFVCWYRPMYKAFRSDSSFNFFVFFFIFFVQDVLFVLQAIGIPGWGFSGWISALVVPKGNTAVSVLMLLVALLFTGIAVLGIVMLKRIHSLYRRTGASFQKAQQEFAAGVFSNPAVRTAAANAAAGAAENAFRAP
  binding: binds

B3: mitochondrial import receptor subunit TOM40 homolog (TOMM40) (protein, UniProt O96008 1-361)
chain: MGNVLAASSPPAGPPPPPAPALVGLPPPPPSPPGFTLPPLGGSLGAGTSTSRSSERTPGAATASASGAAEDGACGCLPNPGTFEECHRKCKELFPIQMEGVKLTVNKGLSNHFQVNHTVALSTIGESNYHFGVTYVGTKQLSPTEAFPVLVGDMDNSGSLNAQVIHQLGPGLRSKMAIQTQQSKFVNWQVDGEYRGSDFTAAVTLGNPDVLVGSGILVAHYLQSITPCLALGGELVYHRRPGEEGTVMSLAGKYTLNNWLATVTLGQAGMHATYYHKASDQLQVGVEFEASTRMQDTSVSFGYQLDLPKANLLFKGSVDSNWIVGATLEKKLPPLPLTLALGAFLNHRKNKFQCGFGLTIG
  binding: no binding

B4: 14-3-3 protein subunit tau/theta (YWHAQ), endogenous (protein, UniProt P27348 1-245)
chain: MEKTELIQKAKLAEQAERYDDMATCMKAVTEQGAELSNEERNLLSVAYKNVVGGRRSAWRVISSIEQKTDTSDKKLQLIKDYREKVESELRSICTTVLELLDKYLIANATNPESKVFYLKMKGDYFRYLAEVACGDDRKQTIDNSQGAYQEAFDISKKEMQPTHPIRLGLALNFSVFYYEILNNPELACTLAKTAFDEAIAELDTLNEDSYKDSTLIMQLLRDNLTLWTSDSAGEECDAAEGAEN
  binding: no binding

B5: hexokinase 2 (HK2) (protein, UniProt P52789 1-917)
chain: MIASHLLAYFFTELNHDQVQKVDQYLYHMRLSDETLLEISKRFRKEMEKGLGATTHPTAAVKMLPTFVRSTPDGTEHGEFLALDLGGTNFRVLWVKVTDNGLQKVEMENQIYAIPEDIMRGSGTQLFDHIAECLANFMDKLQIKDKKLPLGFTFSFPCHQTKLDESFLVSWTKGFKSSGVEGRDVVALIRKAIQRRGDFDIDIVAVVNDTVGTMMTCGYDDHNCEIGLIVGTGSNACYMEEMRHIDMVEGDEGRMCINMEWGAFGDDGSLNDIRTEFDQEIDMGSLNPGKQLFEKMISGMYMGELVRLILVKMAKEELLFGGKLSPELLNTGRFETKDISDIEGEKDGIRKAREVLMRLGLDPTQEDCVATHRICQIVSTRSASLCAATLAAVLQRIKENKGEERLRSTIGVDGSVYKKHPHFAKRLHKTVRRLVPGCDVRFLRSEDGSGKGAAMVTAVAYRLADQHRARQKTLEHLQLSHDQLLEVKRRMKVEMERGLSKETHASAPVKMLPTYVCATPDGTEKGDFLALDLGGTNFRVLLVRVRNGKWGGVEMHNKIYAIPQEVMHGTGDELFDHIVQCIADFLEYMGMKGVSLPLGFTFSFPCQQNSLDESILLKWTKGFKASGCEGEDVVTLLKEAIHRREEFDLDVVAVVNDTVGTMMTCGFEDPHCEVGLIVGTGSNACYMEEMRNVELVEGEEGRMCVNMEWGAFGDNGCLDDFRTEFDVAVDELSLNPGKQRFEKMISGMYLGEIVRNILIDFTKRGLLFRGRISERLKTRGIFETKFLSQIESDCLALLQVRAILQHLGLESTCDDSIIVKEVCTVVARRAAQLCGAGMAAVVDRIRENRGLDALKVTVGVDGTLYKLHPHFAKVMHETVKDLAPKCDVSFLQSEDGSGKGAALITAVACRIREAGQR
  binding: no binding

B6: trans-2,3 enoyl-CoA reductase (TECR) (protein, UniProt Q9NZ01 1-308)
chain: MKHYEVEILDAKTREKLCFLDKVEPHATIAEIKNLFTKTHPQWYPARQSLRLDPKGKSLKDEDVLQKLPVGTTATLYFRDLGAQISWVTVFLTEYAGPLFIYLLFYFRVPFIYGHKYDFTSSRHTVVHLACICHSFHYIKRLLETLFVHRFSHGTMPLRNIFKNCTYYWGFAAWMAYYINHPLYTPPTYGAQQVKLALAIFVICQLGNFSIHMALRDLRPAGSKTRKIPYPTKNPFTWLFLLVSCPNYTYEVGSWIGFAIMTQCLPVALFSLVGFTQMTIWAKGKHRSYLKEFRDYPPLRMPIIPFLL
  binding: no binding
